Where no unit stands, none is given here, and values compare only within one read-out.
Assay: Sensory aldehyde intensity during the hair coloring process
Conditions: scale 1.0=odorless to 9.0=very strong

Which Sensory intensity (1 min) does the source give for `CCCCCCCCCC(C)C=O` (stereo not drawn) [2-Methylundecanal] here?
Its Sensory intensity is 4.6.

What about the Sensory intensity (2 min) of the same compound?
Its Sensory intensity is 5.4.

What about the Sensory intensity (4 min) of the same compound?
The Sensory intensity was 5.8.

And the Sensory intensity (8 min)?
Its Sensory intensity is 6.0.

And the Sensory intensity (15 min)?
The Sensory intensity was 6.0.

What about the Sensory intensity (25 min) of the same compound?
The Sensory intensity was 5.4.

What does the source list for `CC1=CC(C)C(C=O)CC1` (stereo not drawn) [Vertocitral]?
Sensory intensity (1 min): 4.6; Sensory intensity (2 min): 5.4; Sensory intensity (4 min): 5.8; Sensory intensity (8 min): 6.0; Sensory intensity (15 min): 6.0; Sensory intensity (25 min): 5.4

Which results are given for `CCCCCCC=O` [Aldehyde C7, heptanal]?
Sensory intensity (1 min): 4.0; Sensory intensity (2 min): 5.0; Sensory intensity (4 min): 6.0; Sensory intensity (8 min): 6.2; Sensory intensity (15 min): 6.2; Sensory intensity (25 min): 4.4

From patent publication US8268772B2, “Depot preparations” (Symrise AG, priority 2001, dated 2012)
